Test results reported in PubChem BioAssay AID1508600 (Functional Genomics Laboratory (NCATS/FGL), 2020).
Hit rate of the full screen: of about 53,000 sequences, about 3,700 (7%) were called active.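 The calls were made as follows: active = gene knockdowns whose robust z-score for IL-1 alpha signal is at least 2 or at most -2, so actives lie on both sides; inactive = the rest.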 This is one part of the list.

Assay: Components of the Cytosolic LPS Sensing Pathway: Gene Identification via Genome-wide siRNA Screen;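 also: robust z of the log signal after scaling to non-targeting control siRNA wells of the plate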
Settings: RAW264.7 macrophages, IL-1a HTRF, actives lie on both sides, screened at 100 nM (by protocol), cells primed 5 h with Pam3CSK4 first
Outline: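 Using IL-1a HTRF as read-out, the screen measured release from RAW264.7 cells after 48h siRNA knockdown (100 nM), 5 h Pam3CSK4 priming and 24 h cytosolic LipidA. Values were expressed relative to negative-control wells as robust z-scores.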

Sequence | z-score
GUUGUAUUUCUUUGUCCUCTT against Olfr1097 | active: 2.21
GGGAUCAUUAAACUUUUCCTT against Taf11 | inactive: 0.46
GGCUGAUGGAUUCUUAUUGTT against Ostn | inactive: -0.739
GGCCUUGAAGAUCAUGAUCTT against Asb2 | inactive: 0.378
CCGACUACAGCAUGUAUAUTT against Lcn9 | inactive: -0.436
GCUUCACUCCACCUUUCAGTT against Prkcg | inactive: 0.767
GGUGCGAAGGAAAUUGCACTT against Mrps26 | inactive: 1
CUUGGUGGAUGAAAGAUUCTT against Tdpoz2 | inactive: -0.776
CCCUACAUAUAUCAAGAUUTT against Ephb6 | inactive: -0.896
GCUACUGAACGAGAAUGCCTT against Zc3h12a | inactive: 0.394
GGUCUUGAUGGUAGAGAGCTT against Strc | inactive: 1.12
GGUGAUGAUUUAAGAAUCCTT against Sez6 | inactive: 0.00556
GGAUGGAGAAGAUUUAAUGTT against Cul1 | inactive: -0.766
GGUAUCACAUCAACAGGCCTT against Klk1b8 | inactive: 0.37
GUGAGAAAUUCAAUCUUGGTT against Gstm3 | inactive: 0.203
GGAUACUUUAUGGUAUUUCTT against 9130023H24Rik | inactive: 1.45
GGGAGUCGUAUUUAUAUUCTT against Itga5 | inactive: -0.154
GGUACACAACCAUCCUUGATT against Olfr600 | active: -2.33
GGACUCUCACCAAUAAAAGTT against Zadh2 | inactive: -1.29
CCUCUCUGACUGGUUGAAGTT against Olfr345 | inactive: 0.102
GGUCAUGAGUGAAUAAUGATT against Arih1 | inactive: -0.339
GCCAAUCUGAACUUGUGUUTT against Plet1 | inactive: -0.931

Looked up one by one from the list above (three):
Sequence | z-score
GGUCAUGAGUGAAUAAUGATT against Arih1 | inactive: -0.339
GGCCUUGAAGAUCAUGAUCTT against Asb2 | inactive: 0.378
GGCUGAUGGAUUCUUAUUGTT against Ostn | inactive: -0.739

(next part)

Sequence | z-score
GGCUAAGGGUAACGUGCUGTT against Bri3 | inactive: -0.263
GGAGAGACUGUGAAUACAUTT against Ly96 | inactive: 1.07
CGUGGGAUCGAAUACAUAUTT against Iapp | inactive: -0.453
GGAGAGGAGGUGGAAAAACTT against Rab11fip4 | inactive: -1.89
CCAUCUAACCAAAUUCUGGTT against Agpat1 | inactive: 0.371
CCUAAACGAGGCCUUCGACTT against Ferd3l | inactive: -0.272
GCAUUGAAUUGCACUAUUGTT against Ints13 | inactive: -1.15
CGCAAGGAAAUGCUUGACCTT against Elmo3 | inactive: -0.829
CCUCUUACUGCUCUAUGGATT against Tspo2 | inactive: -0.182
GGAAGAAAACACCAUUUUUTT against Irf6 | active: 3.12
GGAUGAGCAGAGCAUCUGUTT against Triml1 | inactive: -0.243
GCGGCUAAUCGCCAAGAGATT against Arhgap9 | inactive: 0.317
GCAUGAGGCUAAAUUGAAATT against Phldb2 | inactive: -0.62
GGACAAUCGGAACCUGUUUTT against Cacna2d2 | inactive: -0.935
CCUUACUGGGCAACUUGCUTT against Olfr1199 | inactive: 0.0219
GGUAUAUGGACUGGUGGAUTT against Hrh2 | inactive: 0.41
GGUAACAGCAUUGAAGGUUTT against Cd93 | inactive: 0.924
GCGAUACAUAUGUGAGUUUTT against Clec3a | inactive: 1.57
GGCCUUUUCUUCUUUUUGUTT against Mill1 | inactive: 0.653
GGAGACGUAUACAAAUGUCTT against Itga11 | inactive: -1.16
GCUGAAUCUAGCUUCUCAUTT against Mad1l1 | inactive: -0.4
CCAUUAGUCAGAGAAUUGUTT against Tomm20 | inactive: 1.15

Sequence | z-score
GGAGCCUUGGUCCUUUGAUTT against Zcchc18 | inactive: -0.347
GGGUUUCUUUGUGGUCUUGTT against Eif3f | inactive: -0.399
GCGGUCUGUAUUCUUCUAGTT against Pdia6 | inactive: -0.47
GGUUUCAAGCUCUAAAGCUTT against Ccr1 | inactive: -0.405
CGAUCACACUCGAAAUCACTT against Nhsl1 | inactive: -1.24
GGAAAGAAGAAGAAAUGACTT against Srp19 | inactive: 0.446
CCGAUGGCUUCAUGAUUCATT against Gulo | inactive: -0.344
GGACGACUUAAAGCUCUUUTT against Olfr1220 | inactive: -0.169
AAUUGAAGACUGUAAAUACTT against Sst | inactive: 1.83
GGACUACGAAGAAAUCACUTT against Aicda | inactive: -1.16
GCCACUUGUGCUAAGCUGUTT against Ager | inactive: -0.768
CCAAACAGUUGGAACUGUGTT against Rusc1 | inactive: -0.134
GGAAUGCAAGGAAAUGAAATT against Obp1a | inactive: 0.93
CCUAUGACACAAGUGAUACTT against Trdv2-2 | inactive: -1.63
GGCCAGACCUUUGUGAAUGTT against Ctse | inactive: -1.96
GGAAAAGUACAAAAGUCAGTT against Kcne2 | inactive: -1.09
GGUGUCGAAGAUCACGUCATT against Abhd17a | inactive: 0.169
GCAAGAUCCCGACACAUACTT against Tead4 | active: -2.22
GGCCGGUGCCUUUUAUUCUTT against Spib | active: 3.26
GGGCAUUUGGCCUUUCUCATT against Cpsf4 | inactive: -0.905
AUAACCCAGUUCAUCCUCCTT against Olfr1431 | inactive: 0.0164
GGAAGAAACUAACCACAACTT against Ikzf1 | inactive: 0.906

A second format for some results above.
Sequence	z-score
CCGAUGGCUUCAUGAUUCATT against Gulo	inactive: -0.344
GGACGACUUAAAGCUCUUUTT against Olfr1220	inactive: -0.169

(next part)

Sequence | z-score
GGAAAAGCAACCAUGUUCUTT against Spon1 | inactive: -0.752
GGAUAACCAUUCAGUAUUATT against Polq | inactive: 0.0331
GGACGUGUGCUCCUUCUUATT against Samhd1 | inactive: 1.62
GGCAUUCUCAAGAAAAAGUTT against Nuak2 | inactive: 1.25
GGAUGGACCUGACUUUCAATT against Txn2 | inactive: 0.366
GCCGCCUCAAACUGGAUAATT against Hdac7 | inactive: -1.6
GCCUCAGUCCGAUAAAGAGTT against Emcn | inactive: -0.662
CGAAGUCCAAAGCCCAGUATT against Klhdc8b | inactive: 0.87
GCCCGGCGAUCUGAAUGUATT against Fchsd2 | inactive: -0.149
GCCAGCUUCCGUGUUUGUUTT against Nfkb1 | inactive: 1.1
CCACUCUCUAGUCCUCAACTT against Svs3a | inactive: 0.189
GGGCAGGGAUGUUUAGAUCTT against Homer2 | inactive: 0.499
CGAAGCACAUAAACUAAAGTT against Ero1a | inactive: 0.629
GCCCACUUCCGAAUCAAUATT against Mrpl52 | inactive: -0.793
CCUAUGCUAUAGCAGUCUCTT against Oaz1 | inactive: -0.482
GCUACGAACUAAUUGAAAATT against Atp8a1 | inactive: 0.0292
GGUACCAUAUCUGUGAACATT against Nrxn3 | inactive: -1.25
GGCUAGCCAUCCAAAAAGATT against Pcare | inactive: 1.07
GGACCUGAAGAAGCAUGGUTT against Mb | inactive: -1.1
GGAUAACCUCCUUACCGUCTT against Eif1ad | inactive: -0.738
CCUAAGGUAGUUUUACCCUTT against Shbg | inactive: 0.428
GGUCAAUUCUUUGUGAUGATT against Usf1 | inactive: -0.609

Sequence | z-score
GCCUUCUUGAACUGAAAGATT against Spc24 | active: -2.04
GGCCAAACUUAAUCAACCUTT against Larp7 | inactive: -0.611
GGAUCUUUGCCAAGAAAUUTT against Fmo2 | inactive: -0.541
GGUCAAAUGAAAGCUCAAGTT against Ppm1d | inactive: -1.66
GGCAUACCAAAGGUAUGAUTT against Serpine1 | inactive: -0.885
GGCCUCAAGAAUGUAACAGTT against Psmf1 | inactive: -1.07
GGUCAAAGCCUUUCAUUAUTT against Arhgap45 | inactive: 0.905
GCUGAAGUAGGGUUUAUUATT against Gdap10 | inactive: 0.786
GCAAGACCCUUCGAGUGAATT against Nkd2 | inactive: -1.2
GGCCUUUUACAAUGAACAUTT against Itgax | inactive: -0.43
GCAUCGAUCUUUCACCUGUTT against Htr4 | inactive: -0.263
CCUCUUAUCUCACAUGCUATT against Ica1 | inactive: -0.0733
GGCUAUCAUCAAGAAGGCUTT against Utp6 | inactive: 0.249
GGUUGACACUGUUGCUUAUTT against Ofcc1 | inactive: -0.251
GGACACAGAUCUGAUGACCTT against Nkain3 | inactive: -1.41
GGUGCACUCGUACUUGACUTT against Mgat4b | inactive: -0.035
CGAUUUUACCAACCGCUGCTT against Chtf18 | inactive: 0.702
GGAUUUCUAGUCUCCUCUUTT against Slc25a11 | inactive: -1.32
GGUACGACAAGGAUUGGAGTT against Arhgap18 | inactive: 0.773

Single values from above:
In z-score, GGCCUUUUACAAUGAACAUTT against Itgax is entered as inactive: -0.43
In z-score, CCUCUUAUCUCACAUGCUATT against Ica1 is entered as inactive: -0.0733
In z-score, GGUGCACUCGUACUUGACUTT against Mgat4b is entered as inactive: -0.035
